Data on four molecules can be found in article PMC4330364.

Protein sequences, listed by entry. Tags and fused reporters are not part of them.
UniProt O14980: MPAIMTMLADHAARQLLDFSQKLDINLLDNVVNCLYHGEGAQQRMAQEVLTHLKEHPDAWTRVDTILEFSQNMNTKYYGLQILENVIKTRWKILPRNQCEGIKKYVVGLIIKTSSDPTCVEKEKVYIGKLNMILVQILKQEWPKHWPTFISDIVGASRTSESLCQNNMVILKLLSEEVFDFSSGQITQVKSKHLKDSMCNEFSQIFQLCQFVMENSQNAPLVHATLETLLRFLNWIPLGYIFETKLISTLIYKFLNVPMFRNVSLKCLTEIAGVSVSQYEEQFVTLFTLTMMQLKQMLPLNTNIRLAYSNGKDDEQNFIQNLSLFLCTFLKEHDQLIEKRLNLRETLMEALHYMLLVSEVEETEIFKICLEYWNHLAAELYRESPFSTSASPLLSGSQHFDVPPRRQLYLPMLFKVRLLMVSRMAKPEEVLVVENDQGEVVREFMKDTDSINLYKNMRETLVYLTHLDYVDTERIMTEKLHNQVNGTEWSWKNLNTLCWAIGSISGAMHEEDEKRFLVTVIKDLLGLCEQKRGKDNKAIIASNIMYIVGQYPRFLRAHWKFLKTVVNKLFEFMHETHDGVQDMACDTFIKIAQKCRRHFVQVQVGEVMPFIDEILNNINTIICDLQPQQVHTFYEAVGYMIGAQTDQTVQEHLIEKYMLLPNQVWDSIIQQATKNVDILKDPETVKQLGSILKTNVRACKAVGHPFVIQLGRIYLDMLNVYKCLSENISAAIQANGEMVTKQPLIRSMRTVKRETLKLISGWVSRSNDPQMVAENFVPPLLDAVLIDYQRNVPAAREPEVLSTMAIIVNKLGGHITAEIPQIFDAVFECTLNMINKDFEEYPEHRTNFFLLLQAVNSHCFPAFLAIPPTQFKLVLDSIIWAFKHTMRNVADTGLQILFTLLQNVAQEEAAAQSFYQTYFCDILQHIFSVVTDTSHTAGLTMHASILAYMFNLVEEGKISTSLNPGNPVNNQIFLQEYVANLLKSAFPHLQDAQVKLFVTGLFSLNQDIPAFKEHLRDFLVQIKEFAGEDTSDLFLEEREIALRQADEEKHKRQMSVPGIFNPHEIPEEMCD
UniProt Q9HAV4: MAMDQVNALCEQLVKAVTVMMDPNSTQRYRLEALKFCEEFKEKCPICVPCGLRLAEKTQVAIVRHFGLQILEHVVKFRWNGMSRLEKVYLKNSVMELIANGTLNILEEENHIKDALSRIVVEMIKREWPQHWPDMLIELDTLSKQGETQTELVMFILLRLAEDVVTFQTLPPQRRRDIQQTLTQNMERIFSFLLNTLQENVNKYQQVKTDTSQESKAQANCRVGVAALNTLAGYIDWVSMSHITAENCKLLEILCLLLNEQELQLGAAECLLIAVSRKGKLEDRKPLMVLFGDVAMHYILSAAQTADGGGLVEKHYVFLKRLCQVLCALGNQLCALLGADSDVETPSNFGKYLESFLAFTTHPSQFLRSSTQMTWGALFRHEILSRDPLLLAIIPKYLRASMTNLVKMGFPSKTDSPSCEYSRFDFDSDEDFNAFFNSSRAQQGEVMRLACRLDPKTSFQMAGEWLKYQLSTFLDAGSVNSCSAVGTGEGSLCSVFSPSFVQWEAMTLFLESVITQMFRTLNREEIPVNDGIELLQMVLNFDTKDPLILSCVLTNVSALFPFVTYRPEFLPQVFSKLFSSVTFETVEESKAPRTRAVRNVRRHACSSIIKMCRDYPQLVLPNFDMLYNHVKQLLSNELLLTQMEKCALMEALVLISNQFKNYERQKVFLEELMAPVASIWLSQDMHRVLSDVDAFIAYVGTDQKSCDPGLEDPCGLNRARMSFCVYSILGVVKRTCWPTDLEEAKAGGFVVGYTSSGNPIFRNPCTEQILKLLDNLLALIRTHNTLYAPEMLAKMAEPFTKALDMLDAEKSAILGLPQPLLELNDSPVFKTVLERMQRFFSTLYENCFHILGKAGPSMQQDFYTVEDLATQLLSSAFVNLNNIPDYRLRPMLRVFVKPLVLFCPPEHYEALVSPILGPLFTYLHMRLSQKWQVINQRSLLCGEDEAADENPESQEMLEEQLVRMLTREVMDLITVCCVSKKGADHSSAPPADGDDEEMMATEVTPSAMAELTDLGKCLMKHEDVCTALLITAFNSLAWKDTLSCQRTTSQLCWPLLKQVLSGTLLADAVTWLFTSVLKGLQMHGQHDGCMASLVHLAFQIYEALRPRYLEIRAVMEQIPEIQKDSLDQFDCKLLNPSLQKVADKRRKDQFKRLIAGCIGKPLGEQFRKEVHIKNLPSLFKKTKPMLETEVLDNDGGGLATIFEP

These are yes or no findings as the source states them, for the method shown. In cells and extracts the contact can be indirect. A yes stands for co-enrichment or nearness to the bait. Other partners may have been found. For some of these results: No binding means not detected with the bait.

Assay [1] addresses Regulator of Telomere ELongation helicase 1 (RTEL1), isoform 6, stably overexpressed in 293T cells (human) (UniProt Q9NZ71). In words: affinity purification with mass spectrometry; rabbit anti-RTEL1 antibody covalently attached to protein A agarose beads, soluble lysate of 293T stably overexpressing hRTEL1; 50 mM tris pH 7.5, 300 mM NaCl, 10% glycerol, 0.1% NP40; overnight at 4°C; control: rabbit preimmune antibody; LC-MS/MS.

In assay [2] the target is T1, Regulator of Telomere ELongation helicase 1 (RTEL1), isoform 6, stably overexpressed in 293T cells (human), Q9NZ71.
T1 chain: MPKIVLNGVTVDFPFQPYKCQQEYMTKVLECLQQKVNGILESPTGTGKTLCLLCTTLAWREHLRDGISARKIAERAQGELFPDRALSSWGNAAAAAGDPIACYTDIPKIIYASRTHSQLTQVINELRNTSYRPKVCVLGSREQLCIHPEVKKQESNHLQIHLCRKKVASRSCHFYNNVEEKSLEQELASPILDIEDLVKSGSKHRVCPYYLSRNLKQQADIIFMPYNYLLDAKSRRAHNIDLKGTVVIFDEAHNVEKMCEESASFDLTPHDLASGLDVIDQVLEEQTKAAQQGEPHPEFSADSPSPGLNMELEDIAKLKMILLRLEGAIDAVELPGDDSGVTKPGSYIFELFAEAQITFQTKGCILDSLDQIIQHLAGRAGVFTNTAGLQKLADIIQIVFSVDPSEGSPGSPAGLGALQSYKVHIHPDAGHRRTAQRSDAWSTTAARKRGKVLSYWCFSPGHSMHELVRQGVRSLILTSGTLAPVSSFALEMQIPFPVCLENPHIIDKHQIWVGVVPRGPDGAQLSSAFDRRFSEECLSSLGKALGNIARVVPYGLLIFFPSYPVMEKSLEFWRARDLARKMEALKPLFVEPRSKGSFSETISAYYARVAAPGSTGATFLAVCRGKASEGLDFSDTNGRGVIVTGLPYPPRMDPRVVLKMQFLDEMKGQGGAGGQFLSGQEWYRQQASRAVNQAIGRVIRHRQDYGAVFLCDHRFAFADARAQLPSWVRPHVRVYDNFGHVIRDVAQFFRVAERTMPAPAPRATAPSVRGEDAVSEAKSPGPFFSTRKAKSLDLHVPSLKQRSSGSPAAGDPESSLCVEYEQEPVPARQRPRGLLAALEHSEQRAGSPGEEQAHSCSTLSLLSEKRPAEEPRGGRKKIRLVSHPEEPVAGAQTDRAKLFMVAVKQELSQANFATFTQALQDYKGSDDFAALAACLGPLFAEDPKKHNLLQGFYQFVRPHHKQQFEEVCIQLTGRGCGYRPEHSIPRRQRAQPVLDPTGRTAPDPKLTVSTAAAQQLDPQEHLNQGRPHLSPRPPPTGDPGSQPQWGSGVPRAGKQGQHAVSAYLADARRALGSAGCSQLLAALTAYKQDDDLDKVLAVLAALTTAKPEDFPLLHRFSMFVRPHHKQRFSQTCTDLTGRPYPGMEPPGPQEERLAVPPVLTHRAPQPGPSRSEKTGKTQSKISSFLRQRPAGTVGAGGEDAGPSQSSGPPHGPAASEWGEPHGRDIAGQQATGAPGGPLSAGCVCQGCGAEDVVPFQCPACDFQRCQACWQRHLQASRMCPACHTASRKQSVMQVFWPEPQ
The description is as above. To be noted: remark: other sources report otherwise.

“XPO1 (CRM1) (from UniProt O14980 1-1071)”: the binding entry in assay [1] is listed as “binds”.
As to XPO5 (from UniProt Q9HAV4 1-1204), in assay [1], the binding entry was “binds”.

B1: XPOT (protein, UniProt O43592 1-962)
chain: MDEQALLGLNPNADSDFRQRALAYFEQLKISPDAWQVCAEALAQRTYSDDHVKFFCFQVLEHQVKYKYSELTTVQQQLIRETLISWLQAQMLNPQPEKTFIRNKAAQVFALLFVTEYLTKWPKFFFDILSVVDLNPRGVDLYLRILMAIDSELVDRDVVHTSEEARRNTLIKDTMREQCIPNLVESWYQILQNYQFTNSEVTCQCLEVVGAYVSWIDLSLIANDRFINMLLGHMSIEVLREEACDCLFEVVNKGMDPVDKMKLVESLCQVLQSAGFFSIDQEEDVDFLARFSKLVNGMGQSLIVSWSKLIKNGDIKNAQEALQAIETKVALMLQLLIHEDDDISSNIIGFCYDYLHILKQLTVLSDQQKANVEAIMLAVMKKLTYDEEYNFENEGEDEAMFVEYRKQLKLLLDRLAQVSPELLLASVRRVFSSTLQNWQTTRFMEVEVAIRLLYMLAEALPVSHGAHFSGDVSKASALQDMMRTLVTSGVSSYQHTSVTLEFFETVVRYEKFFTVEPQHIPCVLMAFLDHRGLRHSSAKVRSRTAYLFSRFVKSLNKQMNPFIEDILNRIQDLLELSPPENGHQSLLSSDDQLFIYETAGVLIVNSEYPAERKQALMRNLLTPLMEKFKILLEKLMLAQDEERQASLADCLNHAVGFASRTSKAFSNKQTVKQCGCSEVYLDCLQTFLPALSCPLQKDILRSGVRTFLHRMIICLEEEVLPFIPSASEHMLKDCEAKDLQEFIPLINQITAKFKIQVSPFLQQMFMPLLHAIFEVLLRPAEENDQSAALEKQMLRRSYFAFLQTVTGSGMSEVIANQGAENVERVLVTVIQGAVEYPDPIAQKTCFIILSKLVELWGGKDGPVGFADFVYKHIVPACFLAPLKQTFDLADAQTVLALSECAVTLKTIHLKRGPECVQYLQQEYLPSLQVAPEIIQEFCQALQQPDAKVFKNYLKVFFQRAKP
With B1, the binding entry in assay [1] was “binds”.

B2: TRF2, Q15554 1-542 (protein)
chain: MAAGAGTAGPASGPGVVRDPAASQPRKRPGREGGEGARRSDTMAGGGGSSDGSGRAAGRRASRSSGRARRGRHEPGLGGPAERGAGEARLEEAVNRWVLKFYFHEALRAFRGSRYGDFRQIRDIMQALLVRPLGKEHTVSRLLRVMQCLSRIEEGENLDCSFDMEAELTPLESAINVLEMIKTEFTLTEAVVESSRKLVKEAAVIICIKNKEFEKASKILKKHMSKDPTTQKLRNDLLNIIREKNLAHPVIQNFSYETFQQKMLRFLESHLDDAEPYLLTMAKKALKSESAASSTGKEDKQPAPGPVEKPPREPARQLRNPPTTIGMMTLKAAFKTLSGAQDSEAAFAKLDQKDLVLPTQALPASPALKNKRPRKDENESSAPADGEGGSELQPKNKRMTISRLVLEEDSQSTEPSAGLNSSQEAASAPPSKPTVLNQPLPGEKNPKVPKGKWNSSNGVEEKETWVEEDELFQVQAAPDEDSTTNITKKQKWTVEESEWVKAGVQKYGEGNWAAISKNYPFVNRTAVMIKDRWRTMKRLGMN
Take B2: the binding result in assay [2] is given as “no binding”.
